Measured values published in paper doi:10.1101/2021.08.09.455730.
No constants are given. Whether binding was seen depends on the method and setting. Binding seen in cells or lysates may run through a third protein. Some entries that bind do so weakly or less than the wild type.

Sequences of proteins named here, by UniProt entry; tags and fusion partners are left off.
UniProt Q8BLR2, whole entry: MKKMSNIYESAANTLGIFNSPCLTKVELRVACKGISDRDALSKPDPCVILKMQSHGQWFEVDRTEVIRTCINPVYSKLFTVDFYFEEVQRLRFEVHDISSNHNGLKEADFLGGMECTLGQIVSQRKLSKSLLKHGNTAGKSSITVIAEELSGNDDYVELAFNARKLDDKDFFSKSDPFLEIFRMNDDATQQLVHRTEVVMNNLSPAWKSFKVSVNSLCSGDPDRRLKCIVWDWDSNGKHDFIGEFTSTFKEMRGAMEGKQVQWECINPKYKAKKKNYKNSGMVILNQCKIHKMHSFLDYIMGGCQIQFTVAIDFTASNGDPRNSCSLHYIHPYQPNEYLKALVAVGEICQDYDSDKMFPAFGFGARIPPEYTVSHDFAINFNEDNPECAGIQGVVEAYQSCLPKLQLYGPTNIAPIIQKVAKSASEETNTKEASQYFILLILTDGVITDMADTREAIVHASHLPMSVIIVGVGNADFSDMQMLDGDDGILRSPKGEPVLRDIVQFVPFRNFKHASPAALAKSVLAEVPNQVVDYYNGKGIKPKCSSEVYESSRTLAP
UniProt Q9JIS5, whole entry: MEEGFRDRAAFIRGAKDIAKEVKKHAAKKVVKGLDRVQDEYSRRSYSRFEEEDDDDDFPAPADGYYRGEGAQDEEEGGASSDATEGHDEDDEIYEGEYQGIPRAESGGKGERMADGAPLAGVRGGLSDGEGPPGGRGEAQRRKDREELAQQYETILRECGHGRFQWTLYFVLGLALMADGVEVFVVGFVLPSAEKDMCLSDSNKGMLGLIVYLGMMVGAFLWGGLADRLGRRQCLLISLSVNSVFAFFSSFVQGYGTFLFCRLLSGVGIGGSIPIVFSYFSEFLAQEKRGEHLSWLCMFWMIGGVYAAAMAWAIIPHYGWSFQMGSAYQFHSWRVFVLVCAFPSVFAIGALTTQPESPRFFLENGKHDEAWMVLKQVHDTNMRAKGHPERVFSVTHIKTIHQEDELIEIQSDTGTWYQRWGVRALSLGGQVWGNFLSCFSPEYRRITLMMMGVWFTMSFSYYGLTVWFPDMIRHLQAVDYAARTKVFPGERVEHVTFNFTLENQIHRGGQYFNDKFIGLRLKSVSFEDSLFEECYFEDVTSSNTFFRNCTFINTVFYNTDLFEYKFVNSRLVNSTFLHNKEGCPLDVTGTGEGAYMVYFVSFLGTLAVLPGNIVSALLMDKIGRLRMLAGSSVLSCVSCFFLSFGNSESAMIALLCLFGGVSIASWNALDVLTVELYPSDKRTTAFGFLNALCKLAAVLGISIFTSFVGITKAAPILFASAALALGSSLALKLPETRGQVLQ
UniProt P14873, whole entry: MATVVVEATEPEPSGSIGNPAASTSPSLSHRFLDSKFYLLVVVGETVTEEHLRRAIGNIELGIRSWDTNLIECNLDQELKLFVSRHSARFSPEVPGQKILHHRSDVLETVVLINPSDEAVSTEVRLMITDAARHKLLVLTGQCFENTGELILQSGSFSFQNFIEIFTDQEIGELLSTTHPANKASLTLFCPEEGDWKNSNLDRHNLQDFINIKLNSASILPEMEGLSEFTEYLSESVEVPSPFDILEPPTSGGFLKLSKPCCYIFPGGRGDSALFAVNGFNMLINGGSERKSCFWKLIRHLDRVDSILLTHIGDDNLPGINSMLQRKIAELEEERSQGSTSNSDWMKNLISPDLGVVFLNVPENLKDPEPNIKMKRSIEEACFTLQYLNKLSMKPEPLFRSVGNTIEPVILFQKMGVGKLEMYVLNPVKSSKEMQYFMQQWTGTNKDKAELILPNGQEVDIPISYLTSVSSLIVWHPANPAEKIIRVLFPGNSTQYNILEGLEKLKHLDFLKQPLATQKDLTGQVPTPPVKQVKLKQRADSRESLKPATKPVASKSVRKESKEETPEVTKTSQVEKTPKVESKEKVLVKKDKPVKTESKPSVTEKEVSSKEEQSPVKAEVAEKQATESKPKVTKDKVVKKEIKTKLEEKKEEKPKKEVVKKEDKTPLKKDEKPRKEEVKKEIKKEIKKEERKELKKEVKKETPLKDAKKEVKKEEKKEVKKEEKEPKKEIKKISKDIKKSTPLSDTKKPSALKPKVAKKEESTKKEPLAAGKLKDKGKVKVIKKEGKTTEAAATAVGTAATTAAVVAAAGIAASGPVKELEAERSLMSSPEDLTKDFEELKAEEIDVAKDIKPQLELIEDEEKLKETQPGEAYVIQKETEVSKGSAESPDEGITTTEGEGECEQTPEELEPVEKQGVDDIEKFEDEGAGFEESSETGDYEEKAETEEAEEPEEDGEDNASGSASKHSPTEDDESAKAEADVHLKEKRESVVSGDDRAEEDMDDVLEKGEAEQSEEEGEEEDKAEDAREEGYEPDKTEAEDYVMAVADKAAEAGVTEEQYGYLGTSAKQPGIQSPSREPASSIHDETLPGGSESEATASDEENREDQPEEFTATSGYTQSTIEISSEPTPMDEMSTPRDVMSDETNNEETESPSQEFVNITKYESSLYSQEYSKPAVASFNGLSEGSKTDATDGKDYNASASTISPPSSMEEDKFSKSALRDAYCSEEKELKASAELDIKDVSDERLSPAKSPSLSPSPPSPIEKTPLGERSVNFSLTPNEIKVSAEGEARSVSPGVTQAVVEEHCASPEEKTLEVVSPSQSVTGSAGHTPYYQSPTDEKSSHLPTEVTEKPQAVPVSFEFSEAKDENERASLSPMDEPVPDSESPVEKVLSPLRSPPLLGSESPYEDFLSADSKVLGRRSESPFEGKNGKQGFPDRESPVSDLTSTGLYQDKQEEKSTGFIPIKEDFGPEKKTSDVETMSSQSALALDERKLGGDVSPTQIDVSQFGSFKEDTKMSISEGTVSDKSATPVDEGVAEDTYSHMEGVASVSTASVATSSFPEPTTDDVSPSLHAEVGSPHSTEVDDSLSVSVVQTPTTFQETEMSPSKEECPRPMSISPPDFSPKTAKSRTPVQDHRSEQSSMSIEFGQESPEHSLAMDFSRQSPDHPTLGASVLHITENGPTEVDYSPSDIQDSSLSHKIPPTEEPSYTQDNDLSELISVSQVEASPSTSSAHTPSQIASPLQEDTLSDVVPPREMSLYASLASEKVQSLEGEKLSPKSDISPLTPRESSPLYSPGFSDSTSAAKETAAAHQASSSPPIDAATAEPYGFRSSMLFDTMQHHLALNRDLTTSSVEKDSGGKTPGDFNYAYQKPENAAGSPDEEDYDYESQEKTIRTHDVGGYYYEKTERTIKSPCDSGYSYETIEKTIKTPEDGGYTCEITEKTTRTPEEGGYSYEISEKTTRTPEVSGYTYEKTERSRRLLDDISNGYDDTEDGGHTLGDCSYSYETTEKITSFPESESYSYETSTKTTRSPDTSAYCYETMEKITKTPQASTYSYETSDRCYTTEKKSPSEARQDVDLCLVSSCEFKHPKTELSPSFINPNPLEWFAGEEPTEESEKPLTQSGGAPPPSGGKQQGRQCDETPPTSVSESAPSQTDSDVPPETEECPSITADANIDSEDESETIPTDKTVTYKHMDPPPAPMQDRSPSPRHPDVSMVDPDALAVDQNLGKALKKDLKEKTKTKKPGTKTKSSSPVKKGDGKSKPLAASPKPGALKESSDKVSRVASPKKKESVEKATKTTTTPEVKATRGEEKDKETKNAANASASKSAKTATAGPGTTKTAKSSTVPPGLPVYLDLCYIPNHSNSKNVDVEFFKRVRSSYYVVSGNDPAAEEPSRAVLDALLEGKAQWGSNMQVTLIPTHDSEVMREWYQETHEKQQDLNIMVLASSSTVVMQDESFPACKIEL
UniProt P61264, whole entry: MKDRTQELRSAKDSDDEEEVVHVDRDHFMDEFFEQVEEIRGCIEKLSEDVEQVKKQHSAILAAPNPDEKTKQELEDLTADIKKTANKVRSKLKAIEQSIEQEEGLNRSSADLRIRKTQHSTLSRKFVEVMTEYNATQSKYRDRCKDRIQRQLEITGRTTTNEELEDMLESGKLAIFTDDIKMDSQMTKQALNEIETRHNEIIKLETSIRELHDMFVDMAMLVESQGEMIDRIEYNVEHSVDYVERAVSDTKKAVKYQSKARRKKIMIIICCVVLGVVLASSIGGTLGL

Molecular target: GST-Cpne4 (UniProt Q8BLR2)
Test: pull-down

Row | binding | Substance
1 | binds | SV2a (from UniProt Q9JIS5 1-742)
2 | binds | Map1b (from UniProt P14873 1-2464)
3 | binds | Stx1b (Syntaxin 1b) (from UniProt P61264 1-288)
